Results reported in paper PMC6832239 (Molecules, 2019).
Some peptides are written in HELM: one residue between dots, names in brackets for other building blocks, links after the first $.

Assay: general procedure: Fmoc solid-phase peptide synthesis; 2-chlorotrityl chloride resin (acids); Rink amide resin (amides); TBTU/HOBt
Conditions: whole synthesis
Ac-KTTKS-NH2 gave an isolated yield of 58%.
Ac-KTTKS-OH gave an isolated yield of 55%.
Ac-KTTRS-NH2 gave an isolated yield of 65%.
Ac-KTTRS-OH gave an isolated yield of 55%.
Work on Ac-RTTKS-NH2 yielded an isolated yield of 54%.
For Ac-RTTKS-OH, the isolated yield was 58%.
With Ac-RTTRS-NH2 the isolated yield was 66%.
In the case of Ac-RTTRS-OH, the isolated yield is reported as 63%.
In the case of H-KTTKS-NH2, the isolated yield is reported as 62%.
H-KTTKS-OH showed an isolated yield of 57%.
In the case of H-KTTRS-NH2, the isolated yield is reported as 63%.
H-KTTRS-OH showed an isolated yield of 58%.
H-RTTKS-NH2 showed an isolated yield of 58%.
H-RTTKS-OH gave an isolated yield of 59%.
With H-RTTRS-NH2 the isolated yield was 65%.
H-RTTRS-OH showed an isolated yield of 68%.
Substance “PEPTIDE1{[XCaph438eea].K.T.T.K.S.[am]}$$$$V2.0” has an isolated yield of 58%.
“PEPTIDE1{[XCaph438eea].K.T.T.K.S}$$$$V2.0” gave an isolated yield of 56%.
“PEPTIDE1{[XCaph438eea].K.T.T.R.S.[am]}$$$$V2.0” showed an isolated yield of 61%.
In the case of “PEPTIDE1{[XCaph438eea].K.T.T.R.S}$$$$V2.0”, the isolated yield is reported as 56%.
With “PEPTIDE1{[XCaph438eea].R.T.T.K.S}$$$$V2.0” the isolated yield was 58%.
Work on “PEPTIDE1{[XCaph438eea].R.T.T.R.S.[am]}$$$$V2.0” yielded an isolated yield of 62%.
“PEPTIDE1{[XCaph438eea].R.T.T.R.S}$$$$V2.0” showed an isolated yield of 65%.
Work on “PEPTIDE1{[XCaphdc5e81].K.T.T.K.S.[am]}$$$$V2.0” yielded an isolated yield of 42%.
Substance “PEPTIDE1{[XCaphdc5e81].K.T.T.K.S}$$$$V2.0” has an isolated yield of 47%.
Substance “PEPTIDE1{[XCaphdc5e81].K.T.T.R.S.[am]}$$$$V2.0” has an isolated yield of 54%.
Work on “PEPTIDE1{[XCaphdc5e81].K.T.T.R.S}$$$$V2.0” yielded an isolated yield of 52%.
Work on “PEPTIDE1{[XCaphdc5e81].R.T.T.K.S.[am]}$$$$V2.0” yielded an isolated yield of 51%.
In the case of “PEPTIDE1{[XCaphdc5e81].R.T.T.K.S}$$$$V2.0”, the isolated yield is reported as 52%.
“PEPTIDE1{[XCaphdc5e81].R.T.T.R.S.[am]}$$$$V2.0” gave an isolated yield of 53%.
“PEPTIDE1{[XCaphdc5e81].R.T.T.R.S}$$$$V2.0” gave an isolated yield of 61%.
With Pal-Arg-Thr-Thr-Lys-Ser- NH2 the isolated yield was 59%.
